{
  "source": "PubChem BioAssay AID504706",
  "about": "(National Center for Advancing Translational Sciences (NCATS), 2011)",
  "note": "The whole screen tested about 320,000 compounds, of which about 200 (0.062%) were called active. Another 6% or so got no clear call; they are omitted. Calls follow the shape of the dose curve; as a rule, active = well fitted activation curve with a large enough effect; inconclusive = small, poorly fitted or top-dose-only effect; inactive = no such curve, though single readings can be large or run the other way. Only a part is listed here, and it is no random draw. The source gives no active or inactive call for entries shown without one. Potency is read from the fitted curve at half-maximal effect.",
  "data": [
    {"experiment": "qHTS assay for re-activators of p53 using a Luc reporter; also: nearly all actives have a fitted effect of over 45% in size; as to activity change, positive = activation: % of control where 0% means no effect", "conditions": "H1299 p53-A138V BP100-luciferase reporter, luminescence, 24 h; activity change, positive = activation: at 92.2 µM (top of the series)", "procedure,_shortened": "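p53-null H1299 cells stably carrying temperature-sensitive p53-A138V and a BP100-luciferase reporter were pinned with compounds (4-point, 1:5 series) and held 24 hrs at 37 deg C. Luminescence was read 10 min after detection reagent.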", "values": [
      {"compound": "CCC(=O)OCCNc1cc(Sc2nccn2C)c2nonc2c1[N+](=O)[O-]", "activity change, positive = activation": "inactive: -39.6%"},
      {"compound": "Cc1ccc(OCc2cc(C(=O)N3CC4C[C@@H]5CC3C[C@H](C4)C5)no2)cc1C", "Potency": "active: 28.2 µM"},
      {"compound": "COc1cc(/C=C(\\C#N)C(=O)Nc2cccc(C(=O)O)c2)ccc1OCc1ccc(Cl)cc1", "activity change, positive = activation": "38.9%"},
      {"compound": "COc1ccc(N=CC2=C(O)c3ccccc3C2=O)cc1", "activity change, positive = activation": "27.2%"},
      {"compound": "Cc1csc(NC(=O)c2ccc(C)c([N+](=O)[O-])c2)n1", "activity change, positive = activation": "43.1%"},
      {"compound": "Cc1ccc(C2=NN3C(C2)c2ccccc2OC32C(=O)Nc3ccccc32)cc1", "note": "(stereo not drawn)", "activity change, positive = activation": "57.2%"},
      {"compound": "O=C(c1cccs1)N1CCc2ccccc21", "activity change, positive = activation": "34.5%"},
      {"compound": "CCN(Cc1ccccc1)C(=O)CN1C(=S)NC(C)(C)CC1C", "note": "(stereo not drawn)", "activity change, positive = activation": "36%"},
      {"compound": "O=C(O)c1cc(N/N=C/c2ccc3c(c2)OCCO3)ccc1Cl", "activity change, positive = activation": "42.2%"},
      {"compound": "Cc1ccc(-c2cc(C(=O)N3CCCC3)no2)cc1", "activity change, positive = activation": "-22.1%"},
      {"compound": "COCCn1c(C)cc(C(=O)CSc2nc3ccccc3s2)c1C", "activity change, positive = activation": "63.5%"},
      {"compound": "O=C(O)c1cccc(-c2nnn(Cc3ccccc3Cl)n2)c1", "activity change, positive = activation": "25.3%"},
      {"compound": "c1ccc(-c2oc3ncnc(NCCCn4ccnc4)c3c2-c2ccccc2)cc1", "activity change, positive = activation": "inactive: -33%"},
      {"compound": "COc1ccccc1NC(CC(=O)c1ccccc1)C(=O)OCC(=O)c1ccc(C)c(C)c1", "note": "(stereo not drawn)", "activity change, positive = activation": "28.2%"},
      {"compound": "COc1ccc(-n2nnnc2-c2nc3ccccc3s2)cc1", "activity change, positive = activation": "60.9%"},
      {"compound": "O=C(CSc1cccc[n+]1[O-])Nc1cc(S(=O)(=O)N2CCOCC2)ccc1N1CCOCC1", "activity change, positive = activation": "55.5%"},
      {"compound": "CN(Cc1ccccc1)C(=O)CNC(=O)Cn1cnc2ccccc2c1=O", "activity change, positive = activation": "-23.7%"},
      {"compound": "O=[N+]([O-])c1ccc(/C=N/Nc2ccc3ccccc3c2)o1", "activity change, positive = activation": "42.3%"},
      {"compound": "Cc1nnc(SCC(=O)N2CCCCC2)s1", "activity change, positive = activation": "46.3%"},
      {"compound": "COc1cc(S(=O)(=O)N2CCN=C2c2ccccc2)ccc1F", "activity change, positive = activation": "inactive: -14.3%"},
      {"compound": "Cc1ccc(S(=O)(=O)N2CCOCC2)cc1C(=O)OCC(=O)NC1CCS(=O)(=O)C1", "note": "(stereo not drawn)", "activity change, positive = activation": "23.1%"},
      {"compound": "Cc1ccc2cc3c(N)c(C(=O)N4CCOCC4)sc3nc2c1", "activity change, positive = activation": "43.1%"},
      {"compound": "CCOc1ncccc1C(=O)OCC(=O)Nc1ccc(-c2nc3ccc(C)cc3s2)cc1", "activity change, positive = activation": "69.3%"},
      {"compound": "COc1ccc(/C=C2/SC(=S)NC2=O)cc1OCc1ccccc1", "activity change, positive = activation": "inactive: -46.6%"},
      {"compound": "COc1ccc(S(=O)(=O)N2CCCCC2)cc1NC(=O)[C@@H]1CCCN1C(=O)c1cccs1", "activity change, positive = activation": "29.7%"},
      {"compound": "Cc1cs/c(=N/C(=S)Nc2ccccc2)n1C", "activity change, positive = activation": "77.3%"},
      {"compound": "Cc1cc(C)c2c(-n3cccc3)c(C(=O)O)sc2n1", "activity change, positive = activation": "43.9%"},
      {"compound": "COc1ccc(NC(=O)c2ccccc2)cc1", "activity change, positive = activation": "88.2%"},
      {"compound": "Cc1c(C)c2cccnc2c2ncccc12", "activity change, positive = activation": "inactive: -33.1%"},
      {"compound": "Cc1ccc(-c2nnn(C(C)C(=O)N3c4ccccc4CCc4ccccc43)n2)cc1", "note": "(stereo not drawn)", "activity change, positive = activation": "93.2%"},
      {"compound": "COCCCNc1oc(/C=C/c2ccccc2)nc1C#N", "activity change, positive = activation": "38.4%"},
      {"compound": "NC(=O)c1ccccc1N/C=C/C(=O)c1ccccc1", "activity change, positive = activation": "41.9%"},
      {"compound": "CCOC(=O)c1cc(-c2ccccc2)sc1NC(=O)CC", "activity change, positive = activation": "65.6%"},
      {"compound": "Cc1ccc(C(=O)Nc2ncc(C)s2)s1", "activity change, positive = activation": "32%"},
      {"compound": "O=C(Nc1ccc(-c2nc3cccnc3s2)cc1)C1CCCO1", "note": "(stereo not drawn)", "activity change, positive = activation": "30.7%"},
      {"compound": "CCC(C)Nc1ccc(NC(C)CC)cc1", "note": "(stereo not drawn)", "activity change, positive = activation": "inactive: -35.6%"},
      {"compound": "O=C(/C=C/Nc1ccccc1)c1ccc(Cl)cc1Cl", "activity change, positive = activation": "35.5%"},
      {"compound": "COc1ccc(-c2ccc3c(c2)S(=O)(=O)c2cccc(C(=O)O)c2C3=O)cc1OC", "activity change, positive = activation": "inactive: -11.7%"},
      {"compound": "O=C(Nc1ccc2nsnc2c1)c1ccc2c(c1)OCO2", "activity change, positive = activation": "45.2%"},
      {"compound": "COc1ccc(C(=O)C(CN2CCCC2)c2ccccc2)cc1", "note": "(stereo not drawn)", "activity change, positive = activation": "inactive: -29.3%"},
      {"compound": "Cc1cccc(-n2ncc3c(N(CCO)CCO)ncnc32)c1", "activity change, positive = activation": "55.8%"},
      {"compound": "Cc1cccc(N2CCN(S(=O)(=O)c3ccc4c(c3)CCC(=O)N4)CC2C)c1", "note": "(stereo not drawn)", "activity change, positive = activation": "52%"},
      {"compound": "O=S(=O)(Nc1cc(Sc2cccc3cccnc23)c(O)c2ccccc12)c1ccc(F)cc1", "activity change, positive = activation": "inactive: -38.4%"},
      {"compound": "CCCCC1(Cc2cccc([N+](=O)[O-])c2)C(=O)N(c2ccccc2)N(c2ccccc2)C1=O", "activity change, positive = activation": "inactive: 1.64%"},
      {"compound": "COCCCN(C(=O)c1ccco1)c1nc(-c2ccc(OC)cc2)cs1", "activity change, positive = activation": "inactive: -66.8%"},
      {"compound": "CCCCc1ccc(NC(=O)C2CCCO2)cc1", "note": "(stereo not drawn)", "activity change, positive = activation": "38.2%"},
      {"compound": "O=C(N/N=C/C1CC=CCC1)c1ccc(Cl)cc1O", "note": "(stereo not drawn)", "Potency": "active: 31.6 µM"},
      {"compound": "COC(=O)c1c(C)n(-c2ccc(OC)cc2)c2ccc(O)cc12", "activity change, positive = activation": "inactive: -34.1%"},
      {"compound": "CCOc1ccc(-c2nnc(SCC(=O)Nc3ccc4c(c3)c3ccccc3n4CC)n2N)cc1", "activity change, positive = activation": "inactive: -46.1%"},
      {"compound": "C/C(=N/N=C/c1ccc(N(C)C)cc1)c1ccccc1", "activity change, positive = activation": "96.9%"},
      {"compound": "Cc1cc(C(=O)CN2C(=O)c3ccccc3S2(=O)=O)c(C)n1CC1CCCO1", "note": "(stereo not drawn)", "activity change, positive = activation": "inactive: -59.7%"},
      {"compound": "CC1CCc2sc(C(=O)NC3CCCCC3)cc2C1", "note": "(stereo not drawn)", "activity change, positive = activation": "59.9%"},
      {"compound": "O=C(COC(=O)c1ccc(F)cc1)NC1CC1", "activity change, positive = activation": "42.3%"},
      {"compound": "O=C(CCCN1C(=O)/C(=C\\c2cccc(Br)c2)SC1=S)Nc1cccnc1", "activity change, positive = activation": "inactive: -2.05%"},
      {"compound": "O=C(Cn1ncc(Cl)c(Cl)c1=O)NCC1CCCCC1", "activity change, positive = activation": "inactive: -34.2%"},
      {"compound": "O=C(O)c1cccc(N/N=C/c2ccc(OC(F)(F)F)cc2)c1", "activity change, positive = activation": "20%"},
      {"compound": "Cc1ccc(/C=C2\\SC(=S)N(CCCC(=O)Nc3cccnc3)C2=O)cc1", "activity change, positive = activation": "inactive: -31.1%"},
      {"compound": "CC(=O)Oc1ccc(C(=O)Nc2cc(C)on2)cc1", "activity change, positive = activation": "57%"},
      {"compound": "CN(C)c1ccc(-c2noc(-c3ccccc3O)n2)cc1", "Potency": "active: 7.08 µM"},
      {"compound": "O=C(CCS(=O)(=O)c1ccccc1)Nc1ccc(-c2nc3ccccc3s2)cc1", "activity change, positive = activation": "159%"},
      {"compound": "O=C(Cn1ccc2ccccc2c1=O)NCCC(=O)NC1CCN(Cc2ccccc2)CC1", "activity change, positive = activation": "22.6%"},
      {"compound": "O=C(/C=C/Nc1ccccc1F)c1cccs1", "activity change, positive = activation": "76.6%"},
      {"compound": "Cc1ccc2c(c1)sc(-c1ccc(N(C)C)cc1)[n+]2C", "activity change, positive = activation": "60%"},
      {"compound": "COc1ccc2nc(SCc3ccccc3)nc(C)c2c1", "activity change, positive = activation": "119%"},
      {"compound": "CC(C)c1ccc(OCc2cccc(C(=O)N/N=C/c3cccnc3)c2)cc1", "activity change, positive = activation": "86.8%"},
      {"compound": "O=C(NCCc1ccccc1)c1ccc2c(c1)OCCO2", "activity change, positive = activation": "inactive: -61.7%"},
      {"compound": "NC(=O)c1ccccc1NC(=O)c1ccc2ccccc2c1", "activity change, positive = activation": "61.8%"},
      {"compound": "Cc1cc(=O)oc(C)c1C(=O)NCc1c(F)cc(F)cc1F", "activity change, positive = activation": "53.7%"},
      {"compound": "CC(=O)Nc1cc(C(=O)OCC(=O)c2ccc(C)cc2)ccc1C", "Potency": "active: 28.2 µM"},
      {"compound": "CCS(=O)(=O)c1ncc(Cl)c(C(=O)Nc2ccc(S(=O)(=O)N3CCCC(C)C3)cc2)n1", "note": "(stereo not drawn)", "activity change, positive = activation": "inactive: -30.7%"},
      {"compound": "Cc1cc(C2=NNC(=NC3CC3)SC2)c(C)n1-c1ccccc1", "activity change, positive = activation": "inactive: -26.5%"},
      {"compound": "CC(=O)Nc1ccc(C(=O)CCl)cc1", "activity change, positive = activation": "inactive: -32.4%"},
      {"compound": "COc1cccc(N2CCN(c3ccc4nnc(CCC(=O)Nc5ccccn5)n4n3)CC2)c1", "activity change, positive = activation": "34.5%"}
    ]}
  ]
}
